According to publication PMC11151598:
No constants are given. Whether binding was seen depends on the method and setting. In cells and extracts the contact can be indirect. Some binding calls cover weakened binding; strength is not graded here.

Chains of the proteins cited; added tags and fusions are not shown.
UniProt P26196: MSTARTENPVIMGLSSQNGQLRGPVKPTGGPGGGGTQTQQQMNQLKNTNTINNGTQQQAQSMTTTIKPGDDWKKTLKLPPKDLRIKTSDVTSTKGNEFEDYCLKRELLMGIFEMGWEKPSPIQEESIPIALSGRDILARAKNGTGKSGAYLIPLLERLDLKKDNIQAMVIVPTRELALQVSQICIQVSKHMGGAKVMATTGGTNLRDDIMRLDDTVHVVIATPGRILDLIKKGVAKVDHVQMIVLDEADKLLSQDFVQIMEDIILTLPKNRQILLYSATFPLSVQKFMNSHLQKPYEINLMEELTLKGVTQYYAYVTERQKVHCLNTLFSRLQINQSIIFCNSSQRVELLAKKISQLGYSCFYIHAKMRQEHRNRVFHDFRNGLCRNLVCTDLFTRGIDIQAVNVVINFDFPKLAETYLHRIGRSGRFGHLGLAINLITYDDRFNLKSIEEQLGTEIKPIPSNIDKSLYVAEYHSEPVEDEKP

Target: DDX6 (human (endogenous in H1299, H1792, A549 and H1944)) (UniProt P26196)
Experiment: co-IP; endogenous proteins in A549 and H1944 cells; lysis in ice-cold RIPA buffer with protease inhibitors; anti-Rab3B, anti-DDX6 or IgG overnight at 4 °C, protein A/G agarose beads; Western blot

- binding: binds
B1: endogenous Rab3B (protein, UniProt P20337 1-219)
chain: MASVTDGKTGVKDASDQNFDYMFKLLIIGNSSVGKTSFLFRYADDTFTPAFVSTVGIDFKVKTVYRHEKRVKLQIWDTAGQERYRTITTAYYRGAMGFILMYDITNEESFNAVQDWATQIKTYSWDNAQVILVGNKCDMEEERVVPTEKGQLLAEQLGFDFFEASAKENISVRQAFERLVDAICDKMSDSLDTDPSMLGSSKNTRLSDTPPLLQQNCSC
